# Counter-ions that a name gives are not always drawn. The list shows a part of the results. Most values come without repeats; read them as rough.
# System: primary mouse Muller glia with Ascl1 overexpression
# Assay: total cells recovered per well; higher = more cells recovered
# Conditions: collection day: 2
# Procedure: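 Primary P11 mouse Muller glia carrying dox-inducible Ascl1 were treated with Tocriscreen Stem Cell Library compounds at 0.1, 1 or 10 uM together with doxycycline for 5 days, then profiled by sci-Plex hashing and sci-RNA-seq2. Cells were annotated by marker genes and cell-type counts per well were size-factor adjusted. Read-outs are the log2 fold change of Neuronal (NeuPre + bipolar) and ProL cell counts versus the Ascl1-only control wells of the same collection day, plus the raw number of recovered cells per well. There is one well per dose, and wells with fewer than 20 cells were discarded.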
SMILES,total cells recovered per well (0.1 µM),total cells recovered per well (1 µM),total cells recovered per well (10 µM)
N[C@@H]1C[C@H]1c1ccccc1 [Tranylcypromine hydrochloride],104,99,116
Cc1sc2c(c1C)C(c1ccc(Cl)cc1)=N[C@@H](CC(N)=O)c1nnc(C)n1-2,94,78,49
COc1ccc(N(C(=O)Oc2c(C)cccc2C)c2ccnc(Nc3ccc(N4CCN(C)CC4)cc3)n2)c(OC)c1,74,50,–
